Data taken from PMC7823470, “Arabidopsis Plant Natriuretic Peptide Is a Novel Interactor of Rubisco Activase” (Life, 2020).

T1: pAtPNP-A, N-terminally biotinylated AtPNP-A(33–66) peptide containing the active region of AtPNP-A (Arabidopsis thaliana) (UniProt Q9ZV52)
T1 sequence (peptide, biotin on the N-terminus; two cysteine residues forming a disulfide bond): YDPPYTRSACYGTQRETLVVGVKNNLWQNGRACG


Target: T1, pAtPNP-A, N-terminally biotinylated AtPNP-A(33–66) peptide containing the active region of AtPNP-A (Arabidopsis thaliana)
Experiment: affinity purification with mass spectrometry; N-terminally biotinylated peptide bait incubated 15 min with A. thaliana (Col-0) protein extract, no cross-linker, Dynabeads M-280 for 30 min (biotin-streptavidin), eluate on SDS-PAGE, in-gel trypsin digestion, LC-MS/MS; pScr as negative control; three independent experiments; only the target purified

Binder | binding
Glyceraldehyde-3-phosphate dehydrogenase B subunit (GAPB) (enzyme, UniProt P25857 81-447) KLKVAINGFGRIGRNFLRCWHGRKDSPLEVVVLNDSGGVKNASHLLKYDSMLGTFKAEVKIVDNETISVDGKLIKVVSNRDPLKLPWAELGIDIVIEGTGVFVDGPGAGKHIQAGASKVIITAPAKGADIPTYVMGVNEQDYGHDVANIISNASCTTNCLAPFAKVLDEEFGIVKGTMTTTHSYTGDQRLLDASHRDLRRARAAALNIVPTSTGAAKAVSLVLPQLKGKLNGIALRVPTPNVSVVDLVINVEKKGLTAEDVNEAFRKAANGPMKGILDVCDAPLVSVDFRCSDVSTTIDSSLTMVMGDDMVKVVAWYDNEWGYSQRVVDLAHLVASKWPGAEAVGSGDPLEDFCKTNPADEECKVYD | binds
Protochlorophyllide oxidoreductase C (PORC) (enzyme, UniProt O48741 68-401) QTVTATPPANEASPEQKKTERKGTAVITGASSGLGLATAKALADTGKWHVIMACRNFLKAEKAARSVGMSKEDYTVMHLDLASLESVKQFVENFRRTEQPLDVLVCNAAVYQPTAKEPSFTAEGFEISVGTNHLGHFLLSRLLLDDLKKSDYPSKRMIIVGSITGNTNTLAGNVPPKANLGDLRGLASGLNGQNSSMIDGGEFDGAKAYKDSKVCNMLTMQELHRRYHEETGVTFASLYPGCIATTGLFREHIPLFRLLFPPFQKYITKGYVSEEEAGKRLAQVVSDPSLGKSGVYWSWNNNSSSFENQLSKEASDAEKAKKLWEVSEKLVGLA | binds

These are yes or no findings as the source states them, for the method shown. In cells and extracts the contact can be indirect. Here binding means that the protein was enriched with, or labelled near, the bait; the list need not be complete.
